# Source: patent publication US20030199514A1, “Methods for improving efficacy of treatment with growth hormone secretagogues” (priority 2002, published 2003)
# Test system: urinary nitrogen excretion
# Assay: Phase I double-blind, placebo-controlled, multiple dose evaluation of test compound in calorically restricted, obese men and women
# Assay type: in vivo, human
# Protocol: Phase I Double-Blind, Placebo-Controlled, Multiple Dose Evaluation of Test Compound in Calorically Restricted, Obese Men and Women
# A total of 48 obese subjects, with a negative exercise tolerance test and without significant other medical problems, were recruited for this study and placed on a caloric-restricted diet. Subjects were randomized to either placebo, 3 mg po tid, 6 mg po tid or 10 mg po qam of the test compound, 2-amino-N-[2-(3a-(R)-benzyl-2-methyl-3-oxo-2,3,3a,4,6,7-hexahydro-pyrazolo[4,3-c]pyridin-5-yl)-1-(R)-benzyloxymethyl-2-oxo-ethyl]-isobutyramide, L-tartrate, for a total of seven days.
# The primary efficacy outcome variable of this study was urinary nitrogen excretion. Breakdown of protein (protein catabolism) may be measured by urinary nitrogen excretion. The covariates determined in this study included: 1.) gender; 2.) serum total and free testosterone; and 3.) serum total and free estradiol.
smiles,measurement,setting,value
"CN1N=C2CCN(C(=O)[C@@H](COCc3ccccc3)NC(=O)C(C)(C)N)C[C@@]2(Cc2ccccc2)C1=O.O=C(O)C(O)C(O)C(=O)O [test compound, 2-amino-N-[2-(3a-(R)-benzyl-2-methyl-3-oxo-2,3,3a,4,6,7-hexahydro-pyrazolo[4,3-c]pyridin-5-yl)-1-(R)-benzyloxymethyl-2-oxo-ethyl]-isobutyramide, L-tartrate]",correlation of serum free testosterone with urinary nitrogen excretion (anabolic response to test compound),among men,significantly (although weakly) negatively correlated
same,correlation of serum free testosterone with urinary nitrogen excretion (anabolic response to test compound),in women,even stronger negative correlation
